Construct, isoform or probe ends are uncertain for at least one entry. At least one verdict rests on a figure or table, not on a statement of the authors.
Test system: His-FOXM1
Assay: EMSA
Conditions: 2 uM protein, 50 nM probe, unlabeled cold probe used as specificity competitor; 20 mM Tris-Cl pH 7.6, 50 mM KCl, 10% glycerol, 0.5 mM EDTA, 0.2 mM DTT, 30 min on ice; 4% native PAGE in 0.5x TBE; recombinant protein; protein details: His

TTTGTTTATTTGTTTGTTTATTTG (double strand) [FAM-labeled FOXM1 EMSA probe]
binding result: binds

Reference: article PMC10439915, “Development of an interfering peptide M1-20 with potent anti-cancer effects by targeting FOXM1” (Cell Death & Disease, 2023)
